What was measured:
[1] = test system: EV-D68 strain USA-MO/18947; test: CPE inhibition assay in RD cells; assay type: cell-based, Human enterovirus D68; conditions: Enterovirus D, EVD68, 120 h, 100 CCID50 virus, 33° C., five days, read-out: Mean EC50 ± SD
[2] = test system: EV-D68 1962 prototype strain (Fermon); test: CPE inhibition assay in RD cells; assay type: cell-based, Human enterovirus D68; conditions: Enterovirus D, EVD68, 120 h, 100 CCID50 virus, 33° C., five days, read-out: Mean EC50 ± SD

## CNCCC(Oc1ccc(C(F)(F)F)cc1)c1ccccc1 (centres unmarked) [Fluoxetine, fluoxetine]
[1]
  EC50: 530 ± 150 nM
[2]
  EC50: 340 ± 40 nM

Reference: US10328128B2, “Treatment of infection by human enterovirus D68” (priority 2014, dated 2019)
